# Experimental data taken from the supplement of paper PMC11348887.
# Counter-ions that a name gives are not always drawn. This is one part of the list. Most entries show no effect beyond the scatter of the controls.
# Key:
# Settings in all cases: 5 µM; treatment: days 7-14 after plating, readout day 21
# [1] = test system: hPSC-derived cortical neurons (WA09); assay: nucleus area z-score vs screen plate; higher = larger nuclei (more mature)
# [2] = test system: hPSC-derived cortical neurons (WA09); assay: total neurite length per nucleus (MAP2) z-score; higher = more neurite growth
# [3] = test system: hPSC-derived cortical neurons (WA09); assay: nucleus roundness z-score vs screen plate; higher = rounder nuclei (more mature)
# [4] = test system: hPSC-derived cortical neurons (WA09); assay: KCl-induced FOS+/EGR-1+ double-positive nuclei fraction z-score (KCl minus unstimulated); higher = stronger activity-induced IEG response
SMILES,nucleus area z-score [1],total neurite length per nucleus (z-score) [2],nucleus roundness z-score [3],KCl-induced FOS+/EGR-1+ double-positive nuclei fraction z-score [4]
COc1cc(NC(C)CCCN)c2ncccc2c1 (centres undefined) [Primaquine Diphosphate],-1.01,-0.34,0.678,0.558
Cc1cc2c(F)c(Oc3ncnn4cc(OC[C@@H](C)OC(=O)[C@H](C)N)c(C)c34)ccc2[nH]1,2.55,1.94,1.55,0.147
COc1cc2ncnc(Oc3cccc(NC(=O)Nc4cc(C(C)(C)C(F)(F)F)on4)c3)c2cc1OC,0.914,1.01,1.44,0.91
COc1ccc2c3c1O[C@H]1C[C@@H](O)C=C[C@@]31CCN(C)C2 [Galanthamine HBr],0.142,1.15,0.617,0.801
CNCc1ccc(-c2cc(-c3nc(-c4ccc(S(=O)(=O)C(C)C)cc4)cnc3N)on2)cc1,-13,-4.35,-5.08,0.0344
CC#CC(=O)Nc1ccc2ncnc(Nc3cccc(Br)c3)c2c1,0.293,0.308,-0.599,0.0375
Nc1nc(=O)[nH]cc1F [Flucytosine],0.691,0.842,-0.719,2.14
CC[C@H]1OC(=O)C[C@@H](O)[C@H](C)[C@@H](O[C@@H]2O[C@H](C)[C@@H](O)[C@H](N(C)C)[C@H]2O)[C@@H](CCN2C[C@H](C)C[C@H](C)C2)C[C@@H](C)C(=O)/C=C/C(C)=C/[C@@H]1CO[C@@H]1O[C@H](C)[C@@H](O)[C@@H](OC)[C@H]1OC [Tilmicosin],-1.23,0.894,0.586,-6.48
CCCCc1oc2ccccc2c1C(=O)c1cc(I)c(OCCN(CC)CC)c(I)c1 [Amiodarone HCl],-2.03,-0.455,-0.548,-0.281
Cc1cc(CN2CCN(c3c(Br)cnc4nc(-c5ccc(N6CCN(C)CC6)cc5)[nH]c34)CC2)no1,-11,-4.56,-1.31,-0.8
CC(=O)Nc1nc(C)c(-c2ccc(Cl)c(S(=O)(=O)NCCO)c2)s1,-0.887,-0.191,0.195,0.129

# Limited to nucleus area z-score [1] and nucleus roundness z-score [3], for some of the entries so far:
SMILES | nucleus area z-score [1] | nucleus roundness z-score [3]
CC[C@H]1OC(=O)C[C@@H](O)[C@H](C)[C@@H](O[C@@H]2O[C@H](C)[C@@H](O)[C@H](N(C)C)[C@H]2O)[C@@H](CCN2C[C@H](C)C[C@H](C)C2)C[C@@H](C)C(=O)/C=C/C(C)=C/[C@@H]1CO[C@@H]1O[C@H](C)[C@@H](O)[C@@H](OC)[C@H]1OC [Tilmicosin] | -1.23 | 0.586
CCCCc1oc2ccccc2c1C(=O)c1cc(I)c(OCCN(CC)CC)c(I)c1 [Amiodarone HCl] | -2.03 | -0.548
